Reference: publication PMC11494501 (ACS Chemical Biology, 2024)
*: point of attachment. FITC = O=C1OC2(c3ccc(O)cc3Oc3cc(O)ccc32)c2ccc(NC(=S)*)cc21; βAla = NCCC(=O)O

assay: peptide synthesis; conditions: whole synthesis, analytical RP-HPLC (Shimadzu, UV 214 nm and 280 nm, Phenomenex Aeris peptide XB-C18)

| Substance | final HPLC purity [%] |
| --- | --- |
| {FITC-βAla}-GEDEEELIRKAIEESLKESG-NH2 (SMILES CC[C@H](C)[C@H](NC(=O)[C@H](C)NC(=O)[C@H](CCCCN)NC(=O)[C@H](CCCNC(=N)N)NC(=O)[C@@H](NC(=O)[C@H](CC(C)C)NC(=O)[C@H](CCC(=O)O)NC(=O)[C@H](CCC(=O)O)NC(=O)[C@H](CCC(=O)O)NC(=O)[C@H](CC(=O)O)NC(=O)[C@H](CCC(=O)O)NC(=O)CNC(=O)CCNC(=S)Nc1ccc2c(c1)C(=O)OC21c2ccc(O)cc2Oc2cc(O)ccc21)[C@@H](C)CC)C(=O)N[C@@H](CCC(=O)O)C(=O)N[C@@H](CCC(=O)O)C(=O)N[C@@H](CO)C(=O)N[C@@H](CC(C)C)C(=O)N[C@@H](CCCCN)C(=O)N[C@@H](CCC(=O)O)C(=O)N[C@@H](CO)C(=O)NCC(N)=O) | 90.59 |
| Ac-βA-GEDEEEAIRKAIELSLKESG-NH2 | 98.43 |
| Ac-βA-GEDEEEEIRKAIELSLKESG-NH2 | 95.04 |
| FITC-βA-GEDEEELIRKAIELSAKESG-NH2 | 91.94 |
| FITC-βA-GEDEEELIRKALELSLKESG-NH2 | 97.02 |
| {FITC-βAla}-GEDEEEEIRKAIELSLKESG-NH2 | 100 |
| Ac-βA-GEDEEELIRKALELSLKESG-NH2 | 100 |
| Ac-βA-GEDEEELIRKAIELSEKESG-NH2 | 92.23 |
| Ac-βA-GEDEEELFRKAIELSLKESG-NH2 | 100 |
| Ac-βA-GEDEEELIRKAIEASLKESG-NH2 | 96.79 |
| {FITC-βAla}-GEDEEELIRKAAELSLKESG-NH2 (SMILES CC[C@H](C)[C@H](NC(=O)[C@H](CC(C)C)NC(=O)[C@H](CCC(=O)O)NC(=O)[C@H](CCC(=O)O)NC(=O)[C@H](CCC(=O)O)NC(=O)[C@H](CC(=O)O)NC(=O)[C@H](CCC(=O)O)NC(=O)CNC(=O)CCNC(=S)Nc1ccc2c(c1)C(=O)OC21c2ccc(O)cc2Oc2cc(O)ccc21)C(=O)N[C@@H](CCCNC(=N)N)C(=O)N[C@@H](CCCCN)C(=O)N[C@@H](C)C(=O)N[C@@H](C)C(=O)N[C@@H](CCC(=O)O)C(=O)N[C@@H](CC(C)C)C(=O)N[C@@H](CO)C(=O)N[C@@H](CC(C)C)C(=O)N[C@@H](CCCCN)C(=O)N[C@@H](CCC(=O)O)C(=O)N[C@@H](CO)C(=O)NCC(N)=O) | 93.67 |
| FITC-βA-GEDEEELFRKAIELSLKESG-NH2 | 100 |
| Ac-βA-GEDEEELIRKAIELSAKESG-NH2 | 93.72 |
| Ac-GEDEEELIRKAIELSLKESG-NH2 | 95.68 |
| Ac-βA-GEDEEELIRKAAELSLKESG-NH2 | 96.38 |
| {FITC-βAla}-GEDEEELIRKAIELSEKESG-NH2 | 96.25 |
| {FITC-βAla}-GEDEEELIRKAIELSLKESG-NH2 | 100 |
| Ac-βA-GEDEEELARKAIELSLKESG-NH2 | 89.50 |
| FITC-βA-GEDEEELARKAIELSLKESG-NH2 | 93.89 |
| Ac-βA-GEDEEELIRKAIEESLKESG-NH2 | 100 |
| FITC-βA-GEDEEELIRKAIEASLKESG-NH2 | 96.33 |

same assay, conditions: whole synthesis, analytical RP-HPLC (Shimadzu, UV 214 nm and 280 nm, Phenomenex Aeris peptide XB-C18), scale 0.025 mmol

| Substance | final HPLC purity [%] |
| --- | --- |
| Ac-GEDEEELIRKAIELSLKESGK(FITC)-NH2 | 93.99 |
